Experimental data: publication PMC5177931
No constants are given. Whether binding was seen depends on the method and setting. Binding seen in cells or lysates may run through a third protein. Here binding means that the protein was enriched with, or labelled near, the bait; the list need not be complete. A no says only that the protein was not detected with the bait.

Sequences of proteins named here, by UniProt entry; tags and fusion partners are left off.
UniProt P40763: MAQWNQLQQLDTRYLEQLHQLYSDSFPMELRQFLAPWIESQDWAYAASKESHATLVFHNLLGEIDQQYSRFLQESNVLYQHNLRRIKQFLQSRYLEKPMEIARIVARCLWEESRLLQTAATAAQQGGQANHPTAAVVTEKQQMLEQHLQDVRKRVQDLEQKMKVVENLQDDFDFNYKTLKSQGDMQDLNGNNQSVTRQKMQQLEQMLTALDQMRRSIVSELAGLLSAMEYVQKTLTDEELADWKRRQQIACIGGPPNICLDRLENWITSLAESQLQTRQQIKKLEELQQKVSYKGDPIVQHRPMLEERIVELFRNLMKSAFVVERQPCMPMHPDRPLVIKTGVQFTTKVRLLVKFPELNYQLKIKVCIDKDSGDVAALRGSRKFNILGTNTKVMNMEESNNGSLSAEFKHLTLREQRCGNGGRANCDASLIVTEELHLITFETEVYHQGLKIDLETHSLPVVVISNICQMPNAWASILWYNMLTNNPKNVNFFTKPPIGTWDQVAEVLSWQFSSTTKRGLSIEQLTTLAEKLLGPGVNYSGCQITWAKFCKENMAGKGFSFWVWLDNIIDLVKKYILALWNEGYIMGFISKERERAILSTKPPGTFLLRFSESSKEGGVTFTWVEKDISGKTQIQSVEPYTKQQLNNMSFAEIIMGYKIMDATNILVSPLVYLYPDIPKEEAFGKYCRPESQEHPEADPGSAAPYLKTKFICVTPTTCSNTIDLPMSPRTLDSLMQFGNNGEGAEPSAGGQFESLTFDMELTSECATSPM
UniProt Q9P0J0: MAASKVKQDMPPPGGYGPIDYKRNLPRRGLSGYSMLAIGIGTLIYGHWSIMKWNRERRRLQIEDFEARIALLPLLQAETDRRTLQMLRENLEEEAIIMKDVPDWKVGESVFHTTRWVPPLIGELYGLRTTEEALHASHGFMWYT
UniProt P99999: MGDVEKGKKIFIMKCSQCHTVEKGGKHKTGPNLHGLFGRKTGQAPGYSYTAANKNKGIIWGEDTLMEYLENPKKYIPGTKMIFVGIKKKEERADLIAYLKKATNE

Target: STAT3 (immunoprecipitated from HeLa cell mitochondria) (human (endogenous in HeLa)) (UniProt P40763)
Experiment: affinity purification with mass spectrometry; STAT3 immunoprecipitates prepared from HeLa cell mitochondria; mass spectrometry of the binding partners

binding	Substance
no binding	GRIM-19 (from UniProt Q9P0J0 1-144)
binds	cytochrome C (from UniProt P99999 1-105)
